Results are given in words; binding and its absence hold for the method and conditions named. Binding seen in cells or lysates may run through a third protein. Some entries that bind do so weakly or less than the wild type. For some assays here: Tags and fused reporters may be left off the sequences shown.

The chains behind the UniProt entries cited, without tags or fusion partners. Where a name states a change or a piece, a line headed by the entry shows the natural chain unless it says otherwise.
UniProt O70511: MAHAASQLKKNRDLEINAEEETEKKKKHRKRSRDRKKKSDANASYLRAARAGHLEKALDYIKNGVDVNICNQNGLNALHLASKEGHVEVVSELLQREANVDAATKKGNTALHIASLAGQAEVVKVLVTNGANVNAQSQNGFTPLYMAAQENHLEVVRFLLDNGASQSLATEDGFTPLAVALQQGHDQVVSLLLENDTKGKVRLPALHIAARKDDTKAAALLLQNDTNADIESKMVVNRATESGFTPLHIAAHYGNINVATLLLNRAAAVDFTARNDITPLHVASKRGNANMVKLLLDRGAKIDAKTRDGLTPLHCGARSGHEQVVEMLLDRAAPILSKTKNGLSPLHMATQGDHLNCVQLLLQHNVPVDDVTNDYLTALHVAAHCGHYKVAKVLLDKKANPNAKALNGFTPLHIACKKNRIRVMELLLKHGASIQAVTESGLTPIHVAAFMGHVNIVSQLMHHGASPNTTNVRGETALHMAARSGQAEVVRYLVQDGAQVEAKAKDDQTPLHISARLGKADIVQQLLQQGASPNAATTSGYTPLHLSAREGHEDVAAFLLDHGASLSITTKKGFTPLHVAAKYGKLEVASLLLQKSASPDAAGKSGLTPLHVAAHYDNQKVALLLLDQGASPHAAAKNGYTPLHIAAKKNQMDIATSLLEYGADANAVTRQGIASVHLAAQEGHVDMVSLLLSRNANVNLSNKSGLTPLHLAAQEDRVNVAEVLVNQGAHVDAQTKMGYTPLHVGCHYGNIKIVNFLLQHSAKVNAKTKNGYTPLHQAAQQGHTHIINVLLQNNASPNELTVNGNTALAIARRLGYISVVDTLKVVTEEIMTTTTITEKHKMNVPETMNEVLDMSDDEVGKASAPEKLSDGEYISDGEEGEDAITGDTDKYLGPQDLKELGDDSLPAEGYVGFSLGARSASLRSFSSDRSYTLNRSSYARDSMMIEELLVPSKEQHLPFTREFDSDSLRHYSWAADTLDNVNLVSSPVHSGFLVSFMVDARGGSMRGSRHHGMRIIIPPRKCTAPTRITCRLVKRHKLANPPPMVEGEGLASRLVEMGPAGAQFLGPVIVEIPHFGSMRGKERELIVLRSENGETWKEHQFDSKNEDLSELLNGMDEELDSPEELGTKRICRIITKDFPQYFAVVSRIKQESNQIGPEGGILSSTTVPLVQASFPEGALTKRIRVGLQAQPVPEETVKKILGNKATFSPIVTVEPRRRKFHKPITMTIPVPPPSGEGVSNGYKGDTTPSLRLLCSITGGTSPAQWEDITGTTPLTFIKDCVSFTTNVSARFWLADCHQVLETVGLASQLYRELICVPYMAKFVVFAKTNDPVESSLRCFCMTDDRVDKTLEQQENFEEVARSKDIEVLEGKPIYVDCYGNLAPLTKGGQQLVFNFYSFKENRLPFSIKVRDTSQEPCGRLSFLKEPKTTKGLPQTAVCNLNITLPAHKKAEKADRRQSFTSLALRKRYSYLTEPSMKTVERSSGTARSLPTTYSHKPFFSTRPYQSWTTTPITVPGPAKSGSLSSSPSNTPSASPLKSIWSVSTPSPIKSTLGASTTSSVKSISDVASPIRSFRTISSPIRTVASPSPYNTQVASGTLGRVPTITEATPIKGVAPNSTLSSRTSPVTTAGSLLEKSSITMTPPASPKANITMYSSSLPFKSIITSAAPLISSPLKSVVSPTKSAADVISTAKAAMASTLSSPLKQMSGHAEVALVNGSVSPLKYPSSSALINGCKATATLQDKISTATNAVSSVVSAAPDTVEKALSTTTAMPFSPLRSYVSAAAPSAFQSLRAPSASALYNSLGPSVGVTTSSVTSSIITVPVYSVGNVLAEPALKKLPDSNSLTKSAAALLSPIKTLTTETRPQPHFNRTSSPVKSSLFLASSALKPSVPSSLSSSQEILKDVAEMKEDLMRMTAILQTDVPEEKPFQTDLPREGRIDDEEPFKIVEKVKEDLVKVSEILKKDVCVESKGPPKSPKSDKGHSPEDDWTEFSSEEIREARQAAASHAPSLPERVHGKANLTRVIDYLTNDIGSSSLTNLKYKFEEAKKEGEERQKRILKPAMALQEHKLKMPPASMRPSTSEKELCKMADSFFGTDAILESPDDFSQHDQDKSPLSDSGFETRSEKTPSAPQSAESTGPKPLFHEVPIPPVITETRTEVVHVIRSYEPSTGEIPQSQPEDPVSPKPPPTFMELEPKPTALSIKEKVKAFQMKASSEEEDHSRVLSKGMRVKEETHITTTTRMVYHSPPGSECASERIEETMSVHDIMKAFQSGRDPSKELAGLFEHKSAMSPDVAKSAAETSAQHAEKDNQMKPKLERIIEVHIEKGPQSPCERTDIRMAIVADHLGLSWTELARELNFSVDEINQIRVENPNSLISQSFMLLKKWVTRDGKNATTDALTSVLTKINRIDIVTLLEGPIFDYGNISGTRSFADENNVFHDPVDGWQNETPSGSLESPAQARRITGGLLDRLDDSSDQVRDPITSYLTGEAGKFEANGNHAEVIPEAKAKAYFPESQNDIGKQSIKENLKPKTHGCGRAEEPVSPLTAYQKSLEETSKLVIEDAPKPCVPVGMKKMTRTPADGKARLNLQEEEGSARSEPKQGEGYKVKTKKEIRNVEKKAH

The values below come from paper PMC9462691.

Experiment [1] has as its target T1, Flag-hPrickle2 (human Prickle-like protein 2 tagged with three flag sequences in the N terminus) (human) (UniProt Q7Z3G6).
T1 sequence: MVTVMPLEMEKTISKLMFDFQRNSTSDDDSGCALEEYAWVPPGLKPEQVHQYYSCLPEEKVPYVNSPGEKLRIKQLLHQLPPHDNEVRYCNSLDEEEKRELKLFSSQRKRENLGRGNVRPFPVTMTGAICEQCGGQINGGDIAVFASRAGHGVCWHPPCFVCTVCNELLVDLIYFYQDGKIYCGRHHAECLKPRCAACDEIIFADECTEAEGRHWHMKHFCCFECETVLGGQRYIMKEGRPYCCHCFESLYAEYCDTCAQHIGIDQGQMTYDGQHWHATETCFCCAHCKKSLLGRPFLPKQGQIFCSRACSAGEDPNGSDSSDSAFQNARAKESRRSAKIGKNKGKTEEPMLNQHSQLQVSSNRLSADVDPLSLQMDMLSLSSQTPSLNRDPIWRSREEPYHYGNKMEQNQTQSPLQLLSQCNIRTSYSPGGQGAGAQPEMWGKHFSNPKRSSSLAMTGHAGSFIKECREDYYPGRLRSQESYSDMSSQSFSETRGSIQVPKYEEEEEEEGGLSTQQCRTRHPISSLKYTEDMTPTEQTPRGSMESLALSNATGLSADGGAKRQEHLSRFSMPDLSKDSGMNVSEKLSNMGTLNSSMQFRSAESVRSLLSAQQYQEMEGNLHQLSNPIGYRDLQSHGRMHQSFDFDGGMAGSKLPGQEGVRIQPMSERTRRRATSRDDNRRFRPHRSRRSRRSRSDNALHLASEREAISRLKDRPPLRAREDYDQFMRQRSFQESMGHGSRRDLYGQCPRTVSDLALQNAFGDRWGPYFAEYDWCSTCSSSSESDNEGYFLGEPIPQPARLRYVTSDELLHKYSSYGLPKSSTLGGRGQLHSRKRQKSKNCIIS
The experiment can be described thus: co-IP; reverse co-IP: AnkG270-GFP co-precipitated with Flag-hPrickle2 (fig. S2B); details of this IP not told in the methods shown.

For experiment [2], the target named is T2, GST-hPrickle2 (amino acid 127 to 323), contains the LIM domains (human) (UniProt Q7Z3G6).
T2 sequence: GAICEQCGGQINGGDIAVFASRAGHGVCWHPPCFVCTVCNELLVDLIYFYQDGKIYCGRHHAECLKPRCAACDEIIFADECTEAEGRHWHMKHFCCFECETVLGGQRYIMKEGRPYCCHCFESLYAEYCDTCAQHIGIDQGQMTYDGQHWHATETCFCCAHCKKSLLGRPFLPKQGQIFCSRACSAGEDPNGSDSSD
The experiment can be described thus: pull-down; GST-Prickle2 fusion proteins on glutathione-Sepharose beads incubated overnight with lysate of HEK293T cells expressing AnkG270-GFP (tris-HCl pH 7.5, 5 mM EDTA, 150 mM NaCl, 1% Triton X-100, 0.5% SDS); washes with TBS and 0.1% Triton X-100; Western blot; only the target purified.

The target of experiment [3] is T3, GST-hPrickle2 (amino acid 585 to 844), second half of the C-terminal half of the protein including the C2 domain (human) (UniProt Q7Z3G6).
T3 sequence: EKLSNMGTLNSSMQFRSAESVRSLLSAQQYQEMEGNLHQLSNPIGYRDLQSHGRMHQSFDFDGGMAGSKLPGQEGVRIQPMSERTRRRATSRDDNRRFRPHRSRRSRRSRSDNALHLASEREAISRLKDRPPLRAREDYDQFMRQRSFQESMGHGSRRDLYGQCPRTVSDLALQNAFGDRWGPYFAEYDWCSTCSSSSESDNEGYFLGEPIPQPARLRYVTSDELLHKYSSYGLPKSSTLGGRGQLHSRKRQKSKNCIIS
The experiment is described as above.

Experiment [4] deals with AnkG270-GFP (270-kDa isoform of Ankyrin-G tagged with GFP) (UniProt O70511). As to the kind of experiment: co-IP; HEK293T cells co-transfected with AnkG-GFP constructs and Flag-hPrickle2; lysis in 50 mM tris-HCl pH 7.5, 150 mM NaCl, 2 mM EDTA, 1% Triton X-100; IP with rabbit anti-GFP (control rabbit IgG), protein A agarose, 4°C; Western blot.
In experiment [5] the target is Ankyrin-G, endogenous in P21 rat cortex (rat (endogenous in P21 cortex)) (UniProt O70511). As to the kind of experiment: co-IP; endogenous IP from P21 rat cortex lysate (50 mM tris pH 7.5, 150 mM NaCl, 2 mM EDTA, 1% Triton X-100) with guinea pig anti-AnkG (control guinea pig IgG), protein A/G agarose, 4°C; Western blot. (In general: In western blotting, separated proteins are transferred to a membrane and probed.)

Turning to “AnkG270-GFP (270-kDa isoform of Ankyrin-G tagged with GFP) (from UniProt O70511-1 1-2622)”, the binding entry in experiment [1], in experiment [2] and in experiment [3] was “binds” throughout.

B1: Flag-hPrickle2 (human Prickle-like protein 2 tagged with three flag sequences in the N terminus) (protein, UniProt Q7Z3G6 1-844)
chain: MVTVMPLEMEKTISKLMFDFQRNSTSDDDSGCALEEYAWVPPGLKPEQVHQYYSCLPEEKVPYVNSPGEKLRIKQLLHQLPPHDNEVRYCNSLDEEEKRELKLFSSQRKRENLGRGNVRPFPVTMTGAICEQCGGQINGGDIAVFASRAGHGVCWHPPCFVCTVCNELLVDLIYFYQDGKIYCGRHHAECLKPRCAACDEIIFADECTEAEGRHWHMKHFCCFECETVLGGQRYIMKEGRPYCCHCFESLYAEYCDTCAQHIGIDQGQMTYDGQHWHATETCFCCAHCKKSLLGRPFLPKQGQIFCSRACSAGEDPNGSDSSDSAFQNARAKESRRSAKIGKNKGKTEEPMLNQHSQLQVSSNRLSADVDPLSLQMDMLSLSSQTPSLNRDPIWRSREEPYHYGNKMEQNQTQSPLQLLSQCNIRTSYSPGGQGAGAQPEMWGKHFSNPKRSSSLAMTGHAGSFIKECREDYYPGRLRSQESYSDMSSQSFSETRGSIQVPKYEEEEEEEGGLSTQQCRTRHPISSLKYTEDMTPTEQTPRGSMESLALSNATGLSADGGAKRQEHLSRFSMPDLSKDSGMNVSEKLSNMGTLNSSMQFRSAESVRSLLSAQQYQEMEGNLHQLSNPIGYRDLQSHGRMHQSFDFDGGMAGSKLPGQEGVRIQPMSERTRRRATSRDDNRRFRPHRSRRSRRSRSDNALHLASEREAISRLKDRPPLRAREDYDQFMRQRSFQESMGHGSRRDLYGQCPRTVSDLALQNAFGDRWGPYFAEYDWCSTCSSSSESDNEGYFLGEPIPQPARLRYVTSDELLHKYSSYGLPKSSTLGGRGQLHSRKRQKSKNCIIS
With B1, the binding result in experiment [4] was “binds”.

B2: Prickle2, endogenous in P21 rat cortex (protein, UniProt A6IBC5 1-847)
chain: MVTVMPLEMEKTISKLMFDFQRNSTSDDDSGCALEEYAWVPPGLKPEQVHQYYSCLPEEKVPYVNSPGEKLRIKQLLHQLPPHDNEVRYCNSLDEEEKRELKLFSNQRKRENLGRGNVRPFPVTMTGAICEQCGGQIKGGDIAVFASRAGHGICWHPPCFICTVCNELLVDLIYFYQDGKIYCGRHHAECLKPRCAACDEIIFADECTEAEGRHWHMRHFCCFECETVLGGQRYIMKEGRPYCCHCFESLYAEYCDTCAQHIGIDQGQMTYDGQHWHATENCFCCAHCKKSLLGRPFLPKQGQIFCSRACSAGEDPNGSDSSDSAFQNARAKESRRSAKIGKNKGKTEETMLNQHSQLQVSSNRLSADVDPLSVQMDLLSLSSQTPSLNRDPIWRSRDEPFHYGNKMEQNQSQSPLQLLSQCNIRTSYSPGGQAAGAQPDMWAKHFSNPKRSSSMALKGHGGSFIQECREDYYPGRLMSQESYSDMSSQSFSETRGSIPVPKYEEEEEEEEEEGGISTQQCRPRRPLSSLKYTEDMTPTEQTPRGSMESLALSNATGLSAEGGAKRQEHLSRFSMPDLSKDSGMNVSEKLSNMGTLNSSMQFRSAESVRSLLSAQQYQEMEGNLHQLSNPLGYRDLQSHGRMHQSFDFDGGIASSKLPGQEGVHIQPMSERTRRRTTSRDDNRRFRPHRSRRSRRSRSDNALHLASEREVIARLKDRPPLRAREDYDQFVRQRSFQESMGQGSRRDLYSQCPRTVSDLALQNAFGERWGPYFTEYDWCSTCSSSSESDNEGYFLGEPIPQPARLRYVTSDELLHKYSSYGVPKSSTLGGRGQLHSRKRQKSKNCIIS
As to B2, the binding result in experiment [5] is on record as “binds”.
